Measured values taken from PMC5661634.

Amino acid sequences for entries named in this document (tags omitted). A change or cut given only in a name is not applied to a line headed by its entry.
UniProt Q13596: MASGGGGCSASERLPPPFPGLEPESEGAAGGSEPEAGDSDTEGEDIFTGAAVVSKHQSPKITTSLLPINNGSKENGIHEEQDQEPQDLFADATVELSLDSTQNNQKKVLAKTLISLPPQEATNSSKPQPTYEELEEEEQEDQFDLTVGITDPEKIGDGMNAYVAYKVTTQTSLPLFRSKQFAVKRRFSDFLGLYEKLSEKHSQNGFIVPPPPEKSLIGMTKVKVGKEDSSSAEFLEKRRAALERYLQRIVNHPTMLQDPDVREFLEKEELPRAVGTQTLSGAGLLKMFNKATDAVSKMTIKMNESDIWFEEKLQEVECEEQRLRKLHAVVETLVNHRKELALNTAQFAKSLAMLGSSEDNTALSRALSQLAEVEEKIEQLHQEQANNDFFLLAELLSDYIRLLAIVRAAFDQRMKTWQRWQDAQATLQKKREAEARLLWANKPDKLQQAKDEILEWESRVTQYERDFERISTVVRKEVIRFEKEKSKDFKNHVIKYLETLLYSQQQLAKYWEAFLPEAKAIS

Assays:
Flag-YFP-SNX6 Δ124–148 = Flag-YFP-SNX6 Δ124–148 (UniProt Q9UNH7); test: co-IP; HEK293T transfected with Flag-YFP-SNX6 constructs; p100 fractions immunopurified with anti-Flag antibody; blotted with anti-SNX1 and anti-Flag
[1] = target: T1, GFP-SNX6 (full-length SNX6) (UniProt Q9UNH7); test: co-IP; GFP-SNX6 from transfected HEK293T lysate (50 mM Tris-HCl, 150 mM NaCl, 1 mM EDTA, 0.5% NP-40) held with anti-GFP antibody and protein A/G beads; purified GST-IncE proteins added, overnight; immunoblot; only the binder purified
T1 sequence: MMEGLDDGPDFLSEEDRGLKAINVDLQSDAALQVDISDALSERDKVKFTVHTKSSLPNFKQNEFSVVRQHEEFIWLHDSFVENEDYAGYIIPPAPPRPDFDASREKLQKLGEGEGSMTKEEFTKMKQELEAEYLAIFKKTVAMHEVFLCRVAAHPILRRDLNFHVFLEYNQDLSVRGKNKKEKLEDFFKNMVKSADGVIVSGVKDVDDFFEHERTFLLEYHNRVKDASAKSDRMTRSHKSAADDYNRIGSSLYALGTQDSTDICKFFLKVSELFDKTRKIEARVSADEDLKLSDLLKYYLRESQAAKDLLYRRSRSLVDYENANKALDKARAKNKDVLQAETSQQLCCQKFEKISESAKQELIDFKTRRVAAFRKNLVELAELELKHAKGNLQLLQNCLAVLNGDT

[2] = target: MBP-IncE^109–132 (Chlamydia trachomatis); test: pull-down; MBP pull-down: MBP-IncE 109-132 on beads, GST-PX5 WT or mutants soluble; 1 h at 4 °C; samples cut with TEV before SDS-PAGE; Coomassie; both purified
[3] = target: GST-IncE^109–132 K118A (Chlamydia trachomatis); test: pull-down; GST pull-down: GST-IncE on beads, excess of soluble purified partner, 1 h at 4 °C; washed with 20 mM Tris pH 8.0, 200 mM NaCl, 0.005% Triton-X100, 2 mM DTT; SDS-PAGE, Coomassie; both purified
[4] = target: GST-IncE^109–132 F117A (Chlamydia trachomatis); test: as above
[5] = target: GST-IncE^109–132 F116A (Chlamydia trachomatis); test: as above
[6] = target: GST-IncE^109–132 Q115A (Chlamydia trachomatis); test: as above
[7] = target: GST-IncE^109–132 V114A (Chlamydia trachomatis); test: as above
[8] = target: GST-IncE^109–132 WT (Chlamydia trachomatis); test: as above
[9] = target: GST-IncE^109–132 V127A (Chlamydia trachomatis); test: as above

Q: How did the binding (Flag-YFP-SNX6 Δ124–148) turn out when “SNX1 (endogenous) (from UniProt Q13596 1-522)” was run?
A: binds

Q: “GST-IncE^109–132 WT (Chlamydia trachomatis) (domain or fragment)” was tested. Which binding [1] did it give?
A: binds

Q: For “GST-IncE^109–132 V114A (Chlamydia trachomatis) (domain or fragment)”, which binding [1] is on record?
A: binds

Q: “GST-IncE^109–132 F116A (Chlamydia trachomatis) (domain or fragment)” was tested. Which binding [1] did it give?
A: no binding

B1: GST-PX5 WT (domain or fragment, UniProt Q9D8U8 20-180)
chain: SVSVDLNVDPSLQIDIPDALSERDKVKFTVHTKTTLSTFQSPEFSVTRQHEDFVWLHDTLTETTDYAGLIIPPAPTKPDFDGPREKMQKLGEGEGSMTKEEFAKMKQELEAEYLAVFKKTVSTHEVFLQRLSSHPVLSKDRNFHVFLEYDQDLSVRRKNTK
Q: How did the binding [2] turn out when B1 was run?
A: binds

B2: GST-PX5 E144A (domain or fragment, UniProt Q9D8U8 20-180)
chain: SVSVDLNVDPSLQIDIPDALSERDKVKFTVHTKTTLSTFQSPEFSVTRQHEDFVWLHDTLTETTDYAGLIIPPAPTKPDFDGPREKMQKLGEGEGSMTKEEFAKMKQELEAEYLAVFKKTVSTHAVFLQRLSSHPVLSKDRNFHVFLEYDQDLSVRRKNTK
Q: Which binding [2] does the source give for B2 here?
A: binds

B3: GST-PX5 E129A (domain or fragment, UniProt Q9D8U8 20-180)
chain: SVSVDLNVDPSLQIDIPDALSERDKVKFTVHTKTTLSTFQSPEFSVTRQHEDFVWLHDTLTETTDYAGLIIPPAPTKPDFDGPREKMQKLGEGEGSMTKEEFAKMKQELAAEYLAVFKKTVSTHEVFLQRLSSHPVLSKDRNFHVFLEYDQDLSVRRKNTK
Q: For B3, which binding [2] is on record?
A: binds

B4: mouse SNX5 PX domain (residues 20–180) (domain or fragment, UniProt Q9D8U8 20-180)
chain: SVSVDLNVDPSLQIDIPDALSERDKVKFTVHTKTTLSTFQSPEFSVTRQHEDFVWLHDTLTETTDYAGLIIPPAPTKPDFDGPREKMQKLGEGEGSMTKEEFAKMKQELEAEYLAVFKKTVSTHEVFLQRLSSHPVLSKDRNFHVFLEYDQDLSVRRKNTK
Q: B4 was tested. Which binding [3] did it give?
A: binds

Q: And the binding [4]?
A: binds

Q: And the binding [5]?
A: no binding

Q: What about the binding [6] of the same molecule?
A: binds

Q: And the binding [7]?
A: no binding

Q: And the binding [8]?
A: binds

Q: And the binding [9]?
A: binds

B5: GST-PX5 Y132A (domain or fragment, UniProt Q9D8U8 20-180)
chain: SVSVDLNVDPSLQIDIPDALSERDKVKFTVHTKTTLSTFQSPEFSVTRQHEDFVWLHDTLTETTDYAGLIIPPAPTKPDFDGPREKMQKLGEGEGSMTKEEFAKMKQELEAEALAVFKKTVSTHEVFLQRLSSHPVLSKDRNFHVFLEYDQDLSVRRKNTK
Q: For B5, which binding [2] is on record?
A: no binding

B6: GST-PX5 L133A (domain or fragment, UniProt Q9D8U8 20-180)
chain: SVSVDLNVDPSLQIDIPDALSERDKVKFTVHTKTTLSTFQSPEFSVTRQHEDFVWLHDTLTETTDYAGLIIPPAPTKPDFDGPREKMQKLGEGEGSMTKEEFAKMKQELEAEYAAVFKKTVSTHEVFLQRLSSHPVLSKDRNFHVFLEYDQDLSVRRKNTK
Q: How did the binding [2] turn out when B6 was run?
A: no binding

B7: GST-PX5 F136A (domain or fragment, UniProt Q9D8U8 20-180)
chain: SVSVDLNVDPSLQIDIPDALSERDKVKFTVHTKTTLSTFQSPEFSVTRQHEDFVWLHDTLTETTDYAGLIIPPAPTKPDFDGPREKMQKLGEGEGSMTKEEFAKMKQELEAEYLAVAKKTVSTHEVFLQRLSSHPVLSKDRNFHVFLEYDQDLSVRRKNTK
Q: How did the binding [2] turn out when B7 was run?
A: no binding

B8: PX5 Δ102–131 (domain or fragment, UniProt Q9D8U8)
chain: SVSVDLNVDPSLQIDIPDALSERDKVKFTVHTKTTLSTFQSPEFSVTRQHEDFVWLHDTLTETTDYAGLIIPPAPTKPDFDGYLAVFKKTVSTHEVFLQRLSSHPVLSKDRNFHVFLEYDQDLSVRRKNTK
Q: How did the binding [8] turn out when B8 was run?
A: no binding

No constants are given. Whether binding was seen depends on the method and setting. For part of these data: Binding calls can cover weak binding; strength is not graded here. For part of these data: Where a sequence is shown, tags or fusion partners need not be part of it. For part of these data: Binding seen in cells or lysates may run through a third protein.
